Test results published in paper PMC10163288.
The other results are listed elsewhere or left out.

B1: il10ra_site1_sap_17_mot_HHH_b1_01563_af2_000000118_0001_40_54_H_._HHH_b1_07652_0001_0000800033_0000001_0_0001 (protein)
chain: SSSSSDVEEEVRELLEEARRLAEEGDPEKAARSLQEAIRLAFRASNPELLRLVWEFLEELSSSSS
B2: il10ra_site1_sap_23_mot_HHH_b2_06480_af2_000000075_0001_1_18_H_._HHH_b1_04601_0001_0000200014_0000001_0_0001 (protein)
chain: SSSSSDVQEVFRLIEEAMELHHDGNPEEAQKVLEEAKEIAEELGNDVLRMVLEYLERKVNSSSSS
B3: il10ra_site1_sap_19_mot_HHH_b2_02337_000000026_0001_38_52_H_._HHH_b2_05811_0001_0000500025_0000001_0_0001 (protein)
chain: SSSSDESEEVLREAEELLEEAHERGDAELLFEIAERAIKRLLELGDPQAALELVRFFAQLSSSSS
B4: il10ra_site1_normal_mot_6792f2186577ebd01aa11eb855ed7b57_0001_af2_000000149_0001_1_16_H_._5947cd9cf3e50e0a76f4b7a97d9f9fb0_0001_1_af2_0001_0000400004_0000002_0 (protein)
chain: SLEEELEELLEELEKISPEARELIKEVKELLKKDESRALYLAARVAALLGDRRVAELLIELFIRL
B5: il10ra_site1_normal_mot_HHH_b1_05254_000000006_0001_1_19_H_._HHH_b1_04999_0001_0000200014_0000001_0 (protein)
chain: SSSSDELYEFAREAIELVIELLREGNPEEARKVVEELERLAEERNNHAVEWTARQLERDINSSSS
B6: il10ra_site1_sap_16_mot_HHH_b1_07962_000000146_0001_41_55_H_._HHH_b2_04286_0001_0000100001_0000001_0_0001_af2pred_0001 (protein)
chain: SSSSSSEEELEELLKELEEAIKRGDEELVEELMARIQILAARLNDPEAFQKALELWLKEFSSSSS
B7: il10ra_site1_sap_18_mot_HHH_b2_03220_af2_000000223_0001_23_40_H_._HHH_b2_00756_af2_0001_0000200006_0000002_0_0001_af2pred_0001 (protein)
chain: SSSSSSDEERERAEELFEQVEEDPRRAERLARELLELALRSRDPEILKLLLELAEELKKSSSSSS
B8: il10ra_site1_normal_mot_HHH_b2_00315_000000062_0001_1_19_H_._HHH_b2_04021_0001_0000200018_0000001_0 (protein)
chain: SSSSSDEEYSEAAKRFLRQLLEQGDEEALEILLHFAKEAAKALNDEELEEEVEEILRKLKSSSSS
B9: il10ra_site1_sap_20_mot_0e2ed5c3f75edde9391a46279eb78c18_0001_000000219_0001_53_65_H_._HHH_b2_05869_0001_0000100006_0000001_0_0001 (protein)
chain: SSSSAEEAYELAEEVVELVHKYQREGDERIRERIEELEELVEELGNRVVLWQIRWMLESLSSSSS
B10: il10ra_site1_normal_mot_HHH_b1_07641_af2_000000285_0001_1_21_H_._HHH_b2_04981_0001_0000400032_0000002_0 (protein)
chain: SSSSTEESEEVMRLLERASELDQEGDKEQAEELVEEAIELAREGGNELLTWQAEFLLRRIRSSSS
B11: il10ra_site1_sap_11_mot_HHH_b1_05329_000000008_0001_43_56_H_._HHH_b2_02124_af2_0002_0000500021_0000001_0_0001 (protein)
chain: SSSSDLEEQIEELREELREALERGDEELALELLQELLRLAFWTSDKELMRELWEAAHKLASSSSS
B12: il10ra_site1_sap_13_mot_HHH_b2_06752_000000207_0001_1_21_H_._HHH_b1_06709_0001_0000100010_0000001_0_0001 (protein)
chain: SSSSSEEFWERVNELLQRAARLYLRGNPEEAEELEEEAERLAKEGNNPEAEESVEHWKKVTSSSS
B13: il10ra_site1_sap_17_mot_HHH_b2_01447_af2_000000258_0001_1_20_H_._HHH_b1_06135_af2_0001_0000100003_0000002_0_0001 (protein)
chain: SSSSSDKEEVEERVEELLEEAEKIEDPEEAMRLLMEAIRLAYRLGDPELLHEIWRVLKEYSSSSS
B14: il10ra_site1_normal_mot_HHH_b1_01821_000000158_0001_23_39_H_._HHH_b1_04578_0001_0000100005_0000001_1 (protein)
chain: SSSSDEFQRLAQEAVRLAIRLSDQETLQRIWELFKRYIEEGDPRLEEELEELLEELEERGSSSSS
B15: il10ra_site1_sap_18_mot_HHH_b2_03328_af2_000000127_0001_1_19_H_._HHH_b1_07680_0001_0000100001_0000001_0_0001 (protein)
chain: SSSSSEEEEEKVEELLERAKRIPDEHEAAQVLFEAMRLAWELNNPELAILVMRVAAEWMQSSSSS
B16: il10ra_site1_normal_mot_HHH_b1_00566_000000151_0001_22_39_H_._ems_3hM_1199_af2_0001_0000200004_0000001_0_1_af2pred_0001 (protein)
chain: SDEETEKIKEEAERRIEEALENNDEETALRVVIEVLRIAYRQNNPDVRRVAEELSRLVAEASLSS
B17: il10ra_site1_normal_mot_HHH_b1_05021_af2_000000076_0001_42_56_H_._HHH_b2_07762_0001_0000100004_0000001_0_af2pred_0001 (protein)
chain: SSSSSSRQELIKRALELLREAVQISDEEEVRELLEEAKELAEEANDVLLRVQIRYLAELNSSSSS
B18: il10ra_site1_normal_mot_0750aae41c39e4229e2ea8fa354cc919_0001_1_000000144_0001_37_51_H_._HHH_b1_03276_0001_0000500031_0000001_0_af2pred_dldesign_0_af2pred (protein)
chain: SSSDPERLFECAKTAIKYLLEAGEPEKAEKTLEYYAKLFEELGYPEYAEELKKYYEELKKELSSS
B19: il10ra_site1_sap_35_mot_HHH_b1_01779_000000096_0001_43_57_H_._ems_3hM_3465_0001_0000100005_0000001_0_0001 (protein)
chain: SSSSDEEEEEELKRVEEELEKLLKEGNPQEAFRLVEEAAELLLEGGDHELMERLLETFIRLSSSS
B20: il10ra_site1_sap_31_mot_HHH_b1_05937_af2_000000262_0001_20_37_H_._HHH_b2_05910_0001_0000300018_0000002_0_0001_af2pred_dldesign_0_af2pred (protein)
chain: SSSSNKEEIEKLIEEIEKLLEAGKPEEALELLRELTRKAIEGKDPEVIAKAVELGKKIEEESSSS
B21: il10ra_site1_normal_mot_8756ee2cf497b5429c717dfc0c0bcfd6_0001_000000186_0001_1_13_H_._HHH_b1_03711_0001_0000100007_0000001_0_af2pred_0001 (protein)
chain: SSSSSDRRELVELVRRVIKLIADGDPEEAEELIKEARELAEELGNEVARVILEFLLEQIRSSSSS
B22: il10ra_site1_normal_mot_HHH_b1_05937_af2_000000262_0001_20_37_H_._HHH_b1_01151_0001_0000100001_0000001_0 (protein)
chain: SSSSSDEVEELLEQAEELAERGNPEEALRVLQEAIRLAFERNDAELVQLIWEVAKEVAELSSSSS
B23: il10ra_site1_sap_21_mot_HHH_b1_03900_000000129_0001_1_16_H_._HHH_b2_02199_af2_0001_0000400039_0000002_0_0001 (protein)
chain: SSSSSSVVEEVAHLSLEAFRLALRGNPEEAREVLEEAEELAREGNDDRILRILEDLLRAQSSSSS
B24: il10ra_site1_normal_mot_HHH_b2_02386_000000054_0001_1_20_H_._HHH_b2_05043_0001_0000100013_0000001_0 (protein)
chain: SSSSSDESYELLRRAIEEVIRLYKEGNPEEAEKVVREVARELEELGNPLAARQLENLLRLLSSSS

What follows are binders tested against il10ra, Q13651 (assay: yeast display titration).

Apparent Kd, inactive:
B1 no binding seen, B2 no binding seen, B3 > 72.1 nM, B4 no binding seen, B5 no binding seen, B6 no binding seen, B7 no binding seen, B8 no binding seen, B9 no binding seen, B10 no binding seen, B11 no binding seen, B12 no binding seen, B13 no binding seen, B14 no binding seen, B15 no binding seen, B16 no binding seen, B17 no binding seen, B18 no binding seen, B19 no binding seen, B20 no binding seen, B21 no binding seen, B22 no binding seen, B23 no binding seen, B24 no binding seen
